According to PMC8536758:
Results are given in words; binding and its absence hold for the method and conditions named. Binding seen in cells or lysates may run through a third protein. Some binding calls cover weakened binding; strength is not graded here. Where a sequence is shown, tags or fusion partners need not be part of it.

The chains behind the UniProt entries cited, without tags or fusion partners. Where a name states a change or a piece, a line headed by the entry shows the natural chain unless it says otherwise. A line that says so, or that is headed by a name, gives the form on record, which may keep a tag or linker.
3 × FLAG-tagged ZSWIM8 (zinc finger SWIM type containing 8), expressed in HEK293T cells (A7E2V4, form named): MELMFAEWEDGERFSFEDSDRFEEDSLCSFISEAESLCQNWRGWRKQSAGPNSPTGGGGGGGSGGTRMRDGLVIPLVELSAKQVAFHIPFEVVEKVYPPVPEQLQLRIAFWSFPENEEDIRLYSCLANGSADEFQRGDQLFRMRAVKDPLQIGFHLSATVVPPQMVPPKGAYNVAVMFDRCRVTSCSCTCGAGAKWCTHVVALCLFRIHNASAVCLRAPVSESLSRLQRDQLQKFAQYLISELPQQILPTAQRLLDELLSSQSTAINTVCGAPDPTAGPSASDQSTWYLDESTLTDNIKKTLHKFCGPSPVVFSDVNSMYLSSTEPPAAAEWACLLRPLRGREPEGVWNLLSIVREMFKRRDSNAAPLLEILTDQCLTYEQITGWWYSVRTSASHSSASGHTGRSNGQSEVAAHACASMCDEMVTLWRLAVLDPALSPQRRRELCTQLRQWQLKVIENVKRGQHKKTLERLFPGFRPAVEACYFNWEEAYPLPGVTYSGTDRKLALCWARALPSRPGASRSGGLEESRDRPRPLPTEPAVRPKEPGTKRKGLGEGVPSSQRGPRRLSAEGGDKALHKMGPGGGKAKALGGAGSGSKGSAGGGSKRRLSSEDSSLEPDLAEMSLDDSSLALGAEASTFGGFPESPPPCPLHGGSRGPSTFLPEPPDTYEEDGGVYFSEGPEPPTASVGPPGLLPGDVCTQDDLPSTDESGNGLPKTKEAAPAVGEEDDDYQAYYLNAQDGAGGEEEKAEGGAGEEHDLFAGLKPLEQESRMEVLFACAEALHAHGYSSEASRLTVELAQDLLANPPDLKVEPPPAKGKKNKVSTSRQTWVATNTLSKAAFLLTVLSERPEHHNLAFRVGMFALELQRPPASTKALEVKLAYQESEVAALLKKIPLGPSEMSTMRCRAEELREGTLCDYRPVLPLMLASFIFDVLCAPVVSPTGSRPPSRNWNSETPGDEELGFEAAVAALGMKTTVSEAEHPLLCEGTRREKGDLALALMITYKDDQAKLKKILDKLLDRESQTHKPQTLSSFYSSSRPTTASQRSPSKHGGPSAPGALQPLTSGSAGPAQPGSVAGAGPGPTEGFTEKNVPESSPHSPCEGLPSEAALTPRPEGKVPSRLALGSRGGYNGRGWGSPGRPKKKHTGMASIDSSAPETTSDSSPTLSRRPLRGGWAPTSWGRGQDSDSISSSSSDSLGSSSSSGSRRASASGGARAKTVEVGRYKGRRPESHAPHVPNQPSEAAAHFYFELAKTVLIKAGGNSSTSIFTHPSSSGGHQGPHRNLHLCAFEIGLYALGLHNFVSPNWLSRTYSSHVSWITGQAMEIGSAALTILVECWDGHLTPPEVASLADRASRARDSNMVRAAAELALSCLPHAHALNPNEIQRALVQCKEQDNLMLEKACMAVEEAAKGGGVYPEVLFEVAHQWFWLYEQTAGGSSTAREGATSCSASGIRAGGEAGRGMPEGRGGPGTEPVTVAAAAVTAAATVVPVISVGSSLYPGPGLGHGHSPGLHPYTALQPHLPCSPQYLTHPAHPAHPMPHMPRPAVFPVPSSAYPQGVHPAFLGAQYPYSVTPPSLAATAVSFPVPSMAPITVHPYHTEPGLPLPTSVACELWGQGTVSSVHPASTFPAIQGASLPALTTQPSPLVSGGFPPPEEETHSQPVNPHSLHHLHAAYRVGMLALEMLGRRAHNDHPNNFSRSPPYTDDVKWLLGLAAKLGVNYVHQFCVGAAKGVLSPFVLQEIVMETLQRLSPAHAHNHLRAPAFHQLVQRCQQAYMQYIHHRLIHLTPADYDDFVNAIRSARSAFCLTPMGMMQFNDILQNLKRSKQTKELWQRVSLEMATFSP

B1: full-length Cdon (cell adhesion molecule-related/downregulated by oncogenes), non-tagged (receptor, UniProt Q32MD9 25-1250)
chain: DLAPYFISEPLSAVQKLGRPVVLHCSAKPVTARISWLHNGKRLDRNTEQIKIHRGTLTILSLNPSLSGCYQCVANNSVGAVVSGPATVSAAALGDFDSSTMHVITAEEKNTGFIGCRVPESNPKAEVRYKIRGKWLKHSTGNYIILPSGNLQVLNVSSKDKGSYKCAAYNPVTSELKVEPTGRKLLVSRPSSNGFHILHPALSQALAVLPHSPVTLECVVSGVPASQVYWLKDGQDAVAGSNWRRLYSHLATASIDPADSGNYSCVVGNKSGDVKHVTYMVNVLEHASISKGLHDQKVSLGATVHFTCDVHGNPAPNRTWFHNAQPIHPSSRHLTEGNVLKITRVVMEDSGLYQCVADNGIGFMQSTGRLQIEQDSGWKPVIVTAPANIEVMDGDFVTLSCNATGVPVPVIHWYGRHGLITSHPSQVLRSKPRKSHLFRPGDLDLEPVYLIMSQAGSSSLSIQAVTLEHAGKYTCEATNKHGSTQSEAFLTVVPFETNTKAESVTPSEASQNDERDPQDGSESSLLNLFPVKVHPSGVELPAERNASVPDAPNILSPPQTHMPDTYNLVWRAGRDGGMPINAYFVKYRKLDDGSGAVGSWHTVRVPGSENELHLTELEPSSLYEVLMVARSAVGEGQPAMLTFRTSKEKMASSKNTQASFPPVGVPKRPVTAEASNSNFGVVLTDSSRHSGVPEAPDRPTISMASETSVYVTWIPRANGGSPITAFKVEYKRMRTSDWLVAAEDIPPSKLSVEVRSLEPGSIYKFRVIAINHYGESFRSSASRPYQVAGFPNRFSNRPITGPHIAYTEAVSDTQIMLKWTYVPSSNNNTPIQGFYIYYRPTDSDNDSDYKRDVVEGSKQWHTIGHLQPETSYDIKMQCFNEGGESEFSNVMICETKVKRVPGASDYPVKELSTPPSSSGNAGNVGPATSPARSSDMLYLIVGCVLGVMVLILMVFIALCLWKSRQQSTIQKYDPPGYLYQGSEINGQMVEYTTLSGAARINGSVHGGFLSNGCSHLHHKGPSGVNGTLSGNINGGLYSAHTNSLTRACVEFEHPHHLVNSGGVYTAVPQMDPLECINCRNCRNNNRCFTKTNSPLPVVPVVASYPQGGLEMKPLNAMKVPVCPASTVPDHGQLPDDCVKDSVAPIPTQHTCCQDNISDINSDSTEDTAEFSRGDSSGHSEAEDKVFSWNPLILSPVLEDCGEKTARSPPGPPLDGLSVVLQQAQET
B2: Cdon-ΔC, which lacks amino acids 1163–1250 (domain or fragment, UniProt Q32MD9 25-1162)
chain: DLAPYFISEPLSAVQKLGRPVVLHCSAKPVTARISWLHNGKRLDRNTEQIKIHRGTLTILSLNPSLSGCYQCVANNSVGAVVSGPATVSAAALGDFDSSTMHVITAEEKNTGFIGCRVPESNPKAEVRYKIRGKWLKHSTGNYIILPSGNLQVLNVSSKDKGSYKCAAYNPVTSELKVEPTGRKLLVSRPSSNGFHILHPALSQALAVLPHSPVTLECVVSGVPASQVYWLKDGQDAVAGSNWRRLYSHLATASIDPADSGNYSCVVGNKSGDVKHVTYMVNVLEHASISKGLHDQKVSLGATVHFTCDVHGNPAPNRTWFHNAQPIHPSSRHLTEGNVLKITRVVMEDSGLYQCVADNGIGFMQSTGRLQIEQDSGWKPVIVTAPANIEVMDGDFVTLSCNATGVPVPVIHWYGRHGLITSHPSQVLRSKPRKSHLFRPGDLDLEPVYLIMSQAGSSSLSIQAVTLEHAGKYTCEATNKHGSTQSEAFLTVVPFETNTKAESVTPSEASQNDERDPQDGSESSLLNLFPVKVHPSGVELPAERNASVPDAPNILSPPQTHMPDTYNLVWRAGRDGGMPINAYFVKYRKLDDGSGAVGSWHTVRVPGSENELHLTELEPSSLYEVLMVARSAVGEGQPAMLTFRTSKEKMASSKNTQASFPPVGVPKRPVTAEASNSNFGVVLTDSSRHSGVPEAPDRPTISMASETSVYVTWIPRANGGSPITAFKVEYKRMRTSDWLVAAEDIPPSKLSVEVRSLEPGSIYKFRVIAINHYGESFRSSASRPYQVAGFPNRFSNRPITGPHIAYTEAVSDTQIMLKWTYVPSSNNNTPIQGFYIYYRPTDSDNDSDYKRDVVEGSKQWHTIGHLQPETSYDIKMQCFNEGGESEFSNVMICETKVKRVPGASDYPVKELSTPPSSSGNAGNVGPATSPARSSDMLYLIVGCVLGVMVLILMVFIALCLWKSRQQSTIQKYDPPGYLYQGSEINGQMVEYTTLSGAARINGSVHGGFLSNGCSHLHHKGPSGVNGTLSGNINGGLYSAHTNSLTRACVEFEHPHHLVNSGGVYTAVPQMDPLECINCRNCRNNNRCFTKTNSPLPVVPVVASYPQGGLEMKPLNAMKVPVCPASTVPDHGQLPDDCV
B3: Cdon-ΔMC, which lacks amino acids 1074–1250 (domain or fragment, UniProt Q32MD9 25-1073)
chain: DLAPYFISEPLSAVQKLGRPVVLHCSAKPVTARISWLHNGKRLDRNTEQIKIHRGTLTILSLNPSLSGCYQCVANNSVGAVVSGPATVSAAALGDFDSSTMHVITAEEKNTGFIGCRVPESNPKAEVRYKIRGKWLKHSTGNYIILPSGNLQVLNVSSKDKGSYKCAAYNPVTSELKVEPTGRKLLVSRPSSNGFHILHPALSQALAVLPHSPVTLECVVSGVPASQVYWLKDGQDAVAGSNWRRLYSHLATASIDPADSGNYSCVVGNKSGDVKHVTYMVNVLEHASISKGLHDQKVSLGATVHFTCDVHGNPAPNRTWFHNAQPIHPSSRHLTEGNVLKITRVVMEDSGLYQCVADNGIGFMQSTGRLQIEQDSGWKPVIVTAPANIEVMDGDFVTLSCNATGVPVPVIHWYGRHGLITSHPSQVLRSKPRKSHLFRPGDLDLEPVYLIMSQAGSSSLSIQAVTLEHAGKYTCEATNKHGSTQSEAFLTVVPFETNTKAESVTPSEASQNDERDPQDGSESSLLNLFPVKVHPSGVELPAERNASVPDAPNILSPPQTHMPDTYNLVWRAGRDGGMPINAYFVKYRKLDDGSGAVGSWHTVRVPGSENELHLTELEPSSLYEVLMVARSAVGEGQPAMLTFRTSKEKMASSKNTQASFPPVGVPKRPVTAEASNSNFGVVLTDSSRHSGVPEAPDRPTISMASETSVYVTWIPRANGGSPITAFKVEYKRMRTSDWLVAAEDIPPSKLSVEVRSLEPGSIYKFRVIAINHYGESFRSSASRPYQVAGFPNRFSNRPITGPHIAYTEAVSDTQIMLKWTYVPSSNNNTPIQGFYIYYRPTDSDNDSDYKRDVVEGSKQWHTIGHLQPETSYDIKMQCFNEGGESEFSNVMICETKVKRVPGASDYPVKELSTPPSSSGNAGNVGPATSPARSSDMLYLIVGCVLGVMVLILMVFIALCLWKSRQQSTIQKYDPPGYLYQGSEINGQMVEYTTLSGAARINGSVHGGFLSNGCSHLHHKGPSGVNGTLSGNINGGLYSAHTNSLTRACV
B4: Cdon-Δ983-1012, which lacks amino acids 983–1012 (receptor, UniProt Q32MD9)
chain: DLAPYFISEPLSAVQKLGRPVVLHCSAKPVTARISWLHNGKRLDRNTEQIKIHRGTLTILSLNPSLSGCYQCVANNSVGAVVSGPATVSAAALGDFDSSTMHVITAEEKNTGFIGCRVPESNPKAEVRYKIRGKWLKHSTGNYIILPSGNLQVLNVSSKDKGSYKCAAYNPVTSELKVEPTGRKLLVSRPSSNGFHILHPALSQALAVLPHSPVTLECVVSGVPASQVYWLKDGQDAVAGSNWRRLYSHLATASIDPADSGNYSCVVGNKSGDVKHVTYMVNVLEHASISKGLHDQKVSLGATVHFTCDVHGNPAPNRTWFHNAQPIHPSSRHLTEGNVLKITRVVMEDSGLYQCVADNGIGFMQSTGRLQIEQDSGWKPVIVTAPANIEVMDGDFVTLSCNATGVPVPVIHWYGRHGLITSHPSQVLRSKPRKSHLFRPGDLDLEPVYLIMSQAGSSSLSIQAVTLEHAGKYTCEATNKHGSTQSEAFLTVVPFETNTKAESVTPSEASQNDERDPQDGSESSLLNLFPVKVHPSGVELPAERNASVPDAPNILSPPQTHMPDTYNLVWRAGRDGGMPINAYFVKYRKLDDGSGAVGSWHTVRVPGSENELHLTELEPSSLYEVLMVARSAVGEGQPAMLTFRTSKEKMASSKNTQASFPPVGVPKRPVTAEASNSNFGVVLTDSSRHSGVPEAPDRPTISMASETSVYVTWIPRANGGSPITAFKVEYKRMRTSDWLVAAEDIPPSKLSVEVRSLEPGSIYKFRVIAINHYGESFRSSASRPYQVAGFPNRFSNRPITGPHIAYTEAVSDTQIMLKWTYVPSSNNNTPIQGFYIYYRPTDSDNDSDYKRDVVEGSKQWHTIGHLQPETSYDIKMQCFNEGGESEFSNVMICETKVKRVPGASDYPVKELSTPPSSSGNAGNVGPATSPARSSDMLYLIVGCVLGVMVLILMVFIALVEYTTLSGAARINGSVHGGFLSNGCSHLHHKGPSGVNGTLSGNINGGLYSAHTNSLTRACVEFEHPHHLVNSGGVYTAVPQMDPLECINCRNCRNNNRCFTKTNSPLPVVPVVASYPQGGLEMKPLNAMKVPVCPASTVPDHGQLPDDCVKDSVAPIPTQHTCCQDNISDINSDSTEDTAEFSRGDSSGHSEAEDKVFSWNPLILSPVLEDCGEKTARSPPGPPLDGLSVVLQQAQET
B5: Cdon-Δ1013-1042, which lacks amino acids 1013–1042 (receptor, UniProt Q32MD9)
chain: DLAPYFISEPLSAVQKLGRPVVLHCSAKPVTARISWLHNGKRLDRNTEQIKIHRGTLTILSLNPSLSGCYQCVANNSVGAVVSGPATVSAAALGDFDSSTMHVITAEEKNTGFIGCRVPESNPKAEVRYKIRGKWLKHSTGNYIILPSGNLQVLNVSSKDKGSYKCAAYNPVTSELKVEPTGRKLLVSRPSSNGFHILHPALSQALAVLPHSPVTLECVVSGVPASQVYWLKDGQDAVAGSNWRRLYSHLATASIDPADSGNYSCVVGNKSGDVKHVTYMVNVLEHASISKGLHDQKVSLGATVHFTCDVHGNPAPNRTWFHNAQPIHPSSRHLTEGNVLKITRVVMEDSGLYQCVADNGIGFMQSTGRLQIEQDSGWKPVIVTAPANIEVMDGDFVTLSCNATGVPVPVIHWYGRHGLITSHPSQVLRSKPRKSHLFRPGDLDLEPVYLIMSQAGSSSLSIQAVTLEHAGKYTCEATNKHGSTQSEAFLTVVPFETNTKAESVTPSEASQNDERDPQDGSESSLLNLFPVKVHPSGVELPAERNASVPDAPNILSPPQTHMPDTYNLVWRAGRDGGMPINAYFVKYRKLDDGSGAVGSWHTVRVPGSENELHLTELEPSSLYEVLMVARSAVGEGQPAMLTFRTSKEKMASSKNTQASFPPVGVPKRPVTAEASNSNFGVVLTDSSRHSGVPEAPDRPTISMASETSVYVTWIPRANGGSPITAFKVEYKRMRTSDWLVAAEDIPPSKLSVEVRSLEPGSIYKFRVIAINHYGESFRSSASRPYQVAGFPNRFSNRPITGPHIAYTEAVSDTQIMLKWTYVPSSNNNTPIQGFYIYYRPTDSDNDSDYKRDVVEGSKQWHTIGHLQPETSYDIKMQCFNEGGESEFSNVMICETKVKRVPGASDYPVKELSTPPSSSGNAGNVGPATSPARSSDMLYLIVGCVLGVMVLILMVFIALCLWKSRQQSTIQKYDPPGYLYQGSEINGQMKGPSGVNGTLSGNINGGLYSAHTNSLTRACVEFEHPHHLVNSGGVYTAVPQMDPLECINCRNCRNNNRCFTKTNSPLPVVPVVASYPQGGLEMKPLNAMKVPVCPASTVPDHGQLPDDCVKDSVAPIPTQHTCCQDNISDINSDSTEDTAEFSRGDSSGHSEAEDKVFSWNPLILSPVLEDCGEKTARSPPGPPLDGLSVVLQQAQET

What follows are binders tested against 3 × FLAG-tagged ZSWIM8 (zinc finger SWIM type containing 8), expressed in HEK293T cells (human) (UniProt A7E2V4) (assay: co-IP; HEK293T cells co-transfected with 3 × FLAG-ZSWIM8 and non-tagged Cdon (FL or mutants), cultured 2 days; lysate (50 mM Tris-HCl pH 7.4, 150 mM NaCl, 1% Triton X-100) immunoprecipitated with anti-FLAG antibody and Protein A Sepharose at 4 °C, immunoblot with anti-Cdon-N).

binding, binds:
B1, B2, B3, B4, B5
